In article PMC10165233:
Results are given in words; binding and its absence hold for the method and conditions named. In cells and extracts the contact can be indirect. Here binding means that the protein was enriched with, or labelled near, the bait; the list need not be complete.

By UniProt entry, the sequences of proteins in these tests, tags left out.
UniProt O14980: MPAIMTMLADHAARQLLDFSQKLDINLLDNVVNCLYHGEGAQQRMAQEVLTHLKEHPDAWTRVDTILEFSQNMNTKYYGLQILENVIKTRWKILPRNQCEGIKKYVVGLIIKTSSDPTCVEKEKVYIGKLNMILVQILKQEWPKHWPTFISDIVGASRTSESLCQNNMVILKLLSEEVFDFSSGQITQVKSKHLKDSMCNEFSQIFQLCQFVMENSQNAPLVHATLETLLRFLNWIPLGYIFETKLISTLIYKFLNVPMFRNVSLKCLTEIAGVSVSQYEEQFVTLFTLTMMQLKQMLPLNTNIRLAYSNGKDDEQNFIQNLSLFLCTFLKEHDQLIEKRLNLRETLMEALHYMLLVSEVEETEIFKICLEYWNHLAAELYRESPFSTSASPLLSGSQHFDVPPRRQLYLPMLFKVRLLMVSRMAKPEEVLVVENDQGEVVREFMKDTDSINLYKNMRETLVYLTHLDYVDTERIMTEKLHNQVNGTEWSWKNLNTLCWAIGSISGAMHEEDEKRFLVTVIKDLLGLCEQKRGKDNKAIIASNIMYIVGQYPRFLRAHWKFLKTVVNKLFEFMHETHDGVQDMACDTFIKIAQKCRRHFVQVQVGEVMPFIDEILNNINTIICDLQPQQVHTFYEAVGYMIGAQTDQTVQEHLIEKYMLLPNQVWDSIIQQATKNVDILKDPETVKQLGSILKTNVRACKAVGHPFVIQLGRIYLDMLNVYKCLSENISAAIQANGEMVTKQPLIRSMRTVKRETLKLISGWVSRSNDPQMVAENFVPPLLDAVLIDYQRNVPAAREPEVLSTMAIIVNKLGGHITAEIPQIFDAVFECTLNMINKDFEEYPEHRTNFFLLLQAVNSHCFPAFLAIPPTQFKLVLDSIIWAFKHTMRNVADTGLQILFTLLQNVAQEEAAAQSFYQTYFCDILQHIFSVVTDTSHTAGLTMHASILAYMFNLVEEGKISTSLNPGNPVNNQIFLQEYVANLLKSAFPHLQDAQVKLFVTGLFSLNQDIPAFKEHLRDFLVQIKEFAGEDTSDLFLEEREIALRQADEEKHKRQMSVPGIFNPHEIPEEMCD

Target: T1, basic leucine zipper transcription factor ATF (activating transcription factor)-like 2 (BATF2) (human (endogenous in HCT116 and CCD 841 CoN)) (UniProt Q8N1L9)
T1 sequence: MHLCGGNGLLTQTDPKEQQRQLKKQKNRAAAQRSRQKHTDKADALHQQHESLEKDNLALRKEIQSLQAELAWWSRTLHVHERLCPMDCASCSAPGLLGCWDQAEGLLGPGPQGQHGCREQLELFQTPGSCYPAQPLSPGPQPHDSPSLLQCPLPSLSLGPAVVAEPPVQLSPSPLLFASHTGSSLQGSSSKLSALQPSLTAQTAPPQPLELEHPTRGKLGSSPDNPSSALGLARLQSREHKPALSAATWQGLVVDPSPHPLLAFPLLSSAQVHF
Assay: affinity purification with mass spectrometry; proteins of CCD 841 CoN and HCT116 cells co-immunoprecipitated on anti-IgG or anti-BATF2 magnetic beads; label-free LC-MS/MS

In the case of “chromosome region maintenance 1 (CRM1) (from UniProt O14980 1-1071)”, the binding is reported as “binds”.
